Experimental data taken from PubChem BioAssay (Tox21).
The inconclusive results got no clear call from the source; some entries with a clear call stand among them for comparison. Potencies of inconclusive entries are doubtful fits and often do not repeat. Some compounds were tested as several samples or in several runs, with calls that do not always agree. Active and inactive are the calls of the source. The call rests on the fitted dose curve.

By UniProt entry, the sequences of proteins in these tests, tags left out. Where a name states a change or a piece, a line headed by the entry shows the natural chain unless it says otherwise.
UniProt P19793: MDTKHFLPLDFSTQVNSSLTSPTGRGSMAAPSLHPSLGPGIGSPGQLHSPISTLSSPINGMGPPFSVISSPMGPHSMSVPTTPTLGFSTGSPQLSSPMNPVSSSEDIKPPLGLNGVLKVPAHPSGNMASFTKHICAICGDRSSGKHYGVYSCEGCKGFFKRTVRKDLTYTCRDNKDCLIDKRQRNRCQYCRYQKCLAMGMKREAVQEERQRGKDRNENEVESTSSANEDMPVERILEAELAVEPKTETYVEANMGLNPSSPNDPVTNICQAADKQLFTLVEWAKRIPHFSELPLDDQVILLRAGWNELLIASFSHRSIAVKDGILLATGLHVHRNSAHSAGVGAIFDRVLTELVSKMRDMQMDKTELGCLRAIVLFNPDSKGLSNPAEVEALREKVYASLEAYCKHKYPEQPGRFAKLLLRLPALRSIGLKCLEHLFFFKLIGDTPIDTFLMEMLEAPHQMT

Each compound was assayed against Retinoic acid receptor RXR-alpha (Homo sapiens) (UniProt P19793) (assay: qHTS assay to identify small molecule agonists of the RXR signaling pathway (AID 1159527; further: nearly all actives have a fitted effect of over 35% in size)). Settings: HEK293T RXRa-UAS-bla, beta-lactamase ratio, 16 h; activation: at 76.8 µM (top of the series) unless noted.
Outline: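 Agonist-mode beta-lactamase reporter assay: HEK 293T RXR-alpha-UAS-bla cells treated 16 hr at 37 C with compounds, 9-cis retinoic acid as positive control. LiveBLAzer FRET substrate, 405 nm excitation, 460/530 nm emission.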
On the % scale 0 is the no-effect control and ±100 the full control effect; potency means the concentration at half of the fitted maximal effect.

Structure (SMILES) | activation | Potency
CCc1cccc(CC)c1NC(=O)CN(CC(=O)O)CC(=O)O | inactive: 4.24% [at 35.3 µM] | 
CC(C)(CC(=O)O)C(=O)O | inactive: 10.8% | 
O=Cc1c2ccccc2c(Cl)c2ccccc12 |  | inconclusive: 2.39 µM [inhibitor]
C[C@@H]1CCN(C(=O)[C@H](CCCN=C(N)N)NS(=O)(=O)c2cccc3c2NC[C@H](C)C3)[C@@H](C(=O)O)C1 | inactive: 6.68% [at 35.3 µM] | 
c1ccncc1 | inactive: 4.95% | 
CC(=O)CC(C)C | inactive: 10.7% | 
CCCCCCCCCOC(=O)c1ccccc1C(=O)OCCCCCCCCC | inactive: -10.7% | 
O[C@@H](COc1cccc2ncccc12)CN1CCN(C2c3ccccc3[C@@H]3[C@H](c4ccccc42)C3(F)F)CC1 (some centres undefined) |  | inconclusive: 9.52 µM [inhibitor, full curve]
Cc1ccc2oc(CN(Cc3ccccc3)C(=O)Nc3c(F)cc(F)cc3F)c(-c3ccc(Cl)cc3)c2c1 | inactive: 1.25% | 
CC(=O)O[C@H]1CC[C@@]2(C)C(=CC[C@@H]3[C@@H]2CC[C@]2(C)C(C(C)=O)=CC[C@@H]32)C1 | inactive: -6.21% [at 35.3 µM] | 
CCN1CCc2nc(N)oc2CC1 | inactive: 8.93% [at 35.3 µM] | 
CC(C)CC(C)(O)C#CC(C)(O)CC(C)C (centres undefined) |  | active: 12.1 µM
CCN(CC)C(C)=O |  | inconclusive: 0.513 µM [activator, single point]
c1cc2ccc3ccc4ccc5cccc6c(c1)c2c3c4c56 | inactive: 5.24% [at 2.71 µM] | 
c1ccc(CNCCNCc2ccccc2)cc1 |  | inconclusive: 6.74 µM [rising, full curve]
O=S(=O)(O)c1ccc(Nc2nc(Nc3ccc(/C=C/c4ccc(Nc5nc(Nc6ccc(S(=O)(=O)O)cc6)nc(N(CCO)CCO)n5)cc4S(=O)(=O)O)c(S(=O)(=O)O)c3)nc(N(CCO)CCO)n2)cc1 |  | active: 26.3 µM
C1CCN(CN2CCCCC2)CC1 |  | inconclusive: 38.9 µM [activator, partial curve, poor fit]
CCN(CC)CCNC(=O)c1cc(S(C)(=O)=O)ccc1OC | inactive: 4.44% [at 35.3 µM] | 
CSc1ccc(/C=C2/C(C)=C(CC(=O)O)c3cc(F)ccc32)cc1 |  | inconclusive: 3.79 µM [fluorescent, partial curve]
CC1(C)C(=O)N(Cl)C(=O)N1Br | inactive: -1.06% | 

Structure (SMILES) | activation | Potency
CC(C)CCOC(=O)c1ccccc1 | inactive: 7.78% | 
O=C(O)c1ccc(C(=O)O)cc1 |  | inconclusive: 24.4 µM [activator, partial curve]
CC1(C)CCC(C)(C)c2cc(C(=O)Nc3ccc(C(=O)O)cc3)ccc21 |  | active: 4.36 µM
CCC(C)NC(N)=O (centres undefined) | inactive: 4.16% | 
Cc1cc(SC2=C(O)C[C@@](CCc3ccc(N)cc3)(C(C)C)OC2=O)c(C(C)(C)C)cc1CO | inconclusive: -6.79% | 
O=CCCc1ccccc1 |  | active: 19.5 µM
O=C(O)Cn1c(C(=O)Nc2nc(-c3ccccc3Cl)cs2)cc2ccccc21 |  | inconclusive: 19 µM [rising, partial curve, poor fit]
Cc1cc(C)c(/C=C2\C(=O)Nc3ccccc32)[nH]1 |  | inconclusive: 23.9 µM [rising, partial curve]
C=CC(C)(O)CC/C=C(/C)CCC=C(C)C (centres undefined) | inconclusive: -21.6% | 
COC(=O)C1=C(C)NC(C)=C(C(=O)OCCc2ccc(N3CCN(C(c4ccccc4)c4ccccc4)CC3)cc2)C1c1cccc([N+](=O)[O-])c1 (centres undefined) | inconclusive: -13% [at 35.3 µM] | 
CCCCC(CC)C(=O)O (centres undefined) |  | inactive
O=C(O)CCCCCCCCCCC(=O)O | inconclusive: 15.9% | 
CC(C)NCC(O)COc1cccc2[nH]ccc12 (centres undefined) | inactive: 10.4% [at 35.3 µM] | 
CO[Si](OC)(OC)c1ccccc1 | inactive: 0.326% | 
CCc1oc2ccccc2c1C(=O)c1cc(I)c(O)c(I)c1 |  | inconclusive: 6.01 µM [inhibitor, partial curve, poor fit]
CCOc1ccc(N)c([N+](=O)[O-])c1 | inactive: -0.401% | 
Nc1nc(N)c2nc(CNc3ccc(C(=O)N[C@@H](CCC(=O)O)C(=O)O)cc3)cnc2n1 |  | inconclusive: 16.2 µM [activator, partial curve]
Nc1ccc2cc(S(=O)(=O)O)ccc2c1 | inactive: -6.48% | 
Cc1ccccc1N=Nc1ccc(N=Nc2c(O)ccc3ccccc23)c(C)c1 | inconclusive: -24.1% [at 35.3 µM] | 

Compounds above containing four or more nitrogen atoms (5):
Structure (SMILES) | activation | Potency
C[C@@H]1CCN(C(=O)[C@H](CCCN=C(N)N)NS(=O)(=O)c2cccc3c2NC[C@H](C)C3)[C@@H](C(=O)O)C1 | inactive: 6.68% [at 35.3 µM] | 
O=S(=O)(O)c1ccc(Nc2nc(Nc3ccc(/C=C/c4ccc(Nc5nc(Nc6ccc(S(=O)(=O)O)cc6)nc(N(CCO)CCO)n5)cc4S(=O)(=O)O)c(S(=O)(=O)O)c3)nc(N(CCO)CCO)n2)cc1 |  | active: 26.3 µM
COC(=O)C1=C(C)NC(C)=C(C(=O)OCCc2ccc(N3CCN(C(c4ccccc4)c4ccccc4)CC3)cc2)C1c1cccc([N+](=O)[O-])c1 (centres undefined) | inconclusive: -13% [at 35.3 µM] | 
Nc1nc(N)c2nc(CNc3ccc(C(=O)N[C@@H](CCC(=O)O)C(=O)O)cc3)cnc2n1 |  | inconclusive: 16.2 µM [activator, partial curve]
Cc1ccccc1N=Nc1ccc(N=Nc2c(O)ccc3ccccc23)c(C)c1 | inconclusive: -24.1% [at 35.3 µM] | 
